# Cleaved PARP in drug-treated melanoma cells

Data from the primary screen of doi:10.1371/journal.pone.0140310, rounded.

Drug key:
BI-D1870 (1 µM): CC(C)CCN1c2nc(Nc3cc(F)c(O)c(F)c3)ncc2N(C)C(=O)C1C (centres undefined)
PD173074 (0.5 µM): CCN(CC)CCCCNc1ncc2cc(-c3cc(OC)cc(OC)c3)c(NC(=O)NC(C)(C)C)nc2n1
lestaurtinib (0.02 µM): C[C@]12O[C@H](C[C@]1(O)CO)n1c3ccccc3c3c4c(c5c6ccccc6n2c5c31)CNC4=O
vorinostat (0.4 µM): O=C(CCCCCCC(=O)Nc1ccccc1)NO
perifosine (2 µM): CCCCCCCCCCCCCCCCCCOP(=O)([O-])OC1CC[N+](C)(C)CC1
CP-690550 (5 µM): C[C@@H]1CCN(C(=O)CC#N)C[C@@H]1N(C)c1ncnc2[nH]ccc12
GW9662 (10 µM): O=C(Nc1ccccc1)c1cc([N+](=O)[O-])ccc1Cl
PLX4720 (0.4 µM): CCCS(=O)(=O)Nc1ccc(F)c(C(=O)c2c[nH]c3ncc(Cl)cc23)c1F
SNS-032 (0.05 µM): CC(C)(C)c1cnc(CSc2cnc(NC(=O)C3CCNCC3)s2)o1

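Human melanoma cell lines in 1,536-well plates were treated with two drugs together for 72 h, then fixed, stained and imaged. The read-out is the fraction of cleaved-PARP-positive nuclei, in % of that fraction in the DMSO control; 200 means twice the control level of this apoptosis marker. Concentrations were fixed for each drug; these are the higher of two levels. These are primary screening values without error estimates. The marker varies much from line to line, for technical or biological reasons.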 Only some of the drugs and lines screened are listed, without regard to their results. A dash means that no value is listed here.

Combination | SK-MEL-28 | C32 | A375 | LB2518-MEL | A101D | 501mel | WM1745 | COLO 829
perifosine + GW9662 | 204 | 85.0 | 127 | 102 | 466 | 208 | - | 186
PD173074 + lestaurtinib | 197 | 89.2 | 89.5 | 178 | 224 | 124 | - | 70.8
perifosine + CP-690550 | 172 | 52.5 | - | 122 | 327 | - | 112 | 73.6
PLX4720 + lestaurtinib | 171 | 76.6 | 264 | 382 | 115 | - | 137 | 122
CP-690550 + vorinostat | 50.4 | 120 | - | 104 | 145 | - | 90.6 | 116
BI-D1870 + vorinostat | 114 | 89.6 | 116 | 77.6 | 134 | 232 | 93.9 | 88.1
perifosine + vorinostat | 202 | 75.1 | - | 76.5 | 115 | - | 175 | 78.2
SNS-032 + GW9662 | 320 | 107 | 50.9 | 198 | 110 | 167 | 103 | 197
SNS-032 + PLX4720 | 419 | 230 | - | 37.1 | 34.4 | - | 153 | 233
GW9662 + lestaurtinib | 398 | 74.3 | 62.7 | 405 | 171 | 75.7 | - | 128
GW9662 + PLX4720 | 78.4 | 95.5 | 260 | 63.2 | 158 | 94.5 | - | 99.4
CP-690550 + PD173074 | 144 | 95.7 | 65.7 | 221 | 171 | 110 | 123 | 63.1
SNS-032 + CP-690550 | 153 | 199 | - | 413 | 252 | - | 227 | 132
BI-D1870 + CP-690550 | 84.5 | 88.6 | 119 | 52.1 | 59.6 | 186 | 116 | 54.4
SNS-032 + PD173074 | 154 | 119 | 54.4 | 94.5 | 124 | 275 | 116 | 81.5
PLX4720 + BI-D1870 | 113 | 79.1 | 114 | 46.9 | 235 | 92.1 | - | 177
perifosine + PD173074 | 38.3 | 70.4 | 19.9 | 61.5 | 101 | 304 | - | 72.7
vorinostat + GW9662 | 163 | 98.2 | 57.0 | 93.2 | 178 | 127 | 117 | 217
perifosine + BI-D1870 | 174 | 75.3 | 158 | 93.0 | 90.3 | 194 | - | 89.9
SNS-032 + perifosine | 204 | 99.9 | - | 148 | 165 | - | 127 | 201
lestaurtinib + CP-690550 | 89.4 | 221 | - | 132 | 89.6 | - | 138 | 90.3
SNS-032 + lestaurtinib | 291 | 241 | - | 75.2 | 161 | - | 121 | 91.5
vorinostat + PD173074 | 80.8 | 83.5 | 73.2 | 58.0 | 73.2 | 228 | 241 | 141
GW9662 + BI-D1870 | 99.9 | 98.5 | 43.4 | 120 | 355 | 68.3 | 113 | 217
CP-690550 + PLX4720 | 156 | 194 | - | 47.0 | 228 | - | 147 | 135
PD173074 + GW9662 | 163 | 94.9 | 49.4 | 63.7 | 72.1 | 141 | 105 | 269
lestaurtinib + perifosine | 191 | 92.4 | 24.1 | 52.6 | 145 | - | 101 | 88.4
vorinostat + PLX4720 | 59.8 | 106 | - | 51.6 | 228 | - | 110 | 116

Repeated from the top, 3 entries:

Combination,SK-MEL-28,C32,A375,LB2518-MEL,A101D,501mel,WM1745,COLO 829
perifosine + GW9662,204,85.0,127,102,466,208,-,186
PD173074 + lestaurtinib,197,89.2,89.5,178,224,124,-,70.8
perifosine + CP-690550,172,52.5,-,122,327,-,112,73.6